Data as given in PubChem BioAssay AID493246 (Drosophila RNAi Screening Center, 2011).
The screen tested about 21,000 reagents; shown is a random part of those with a known target gene and a result. Over the whole deposit, 429 (2%) got an active call. 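Values are raw and not normalised between plates; calls rest on per-plate z-scores that were not deposited.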 A plus sign joins genes that one reagent is predicted to hit. Not stated in the record: the amount of reagent, the time to read-out.

Aim: 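Genome-wide search for dsRNAs that reduce cell number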 (primary screen)
Cells: Drosophila Kc and S2R+ cells
Reagent: long dsRNA against Drosophila genes
Measured: 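Raw, unnormalised count of remaining cells in each well; per-plate z-scores of cell number underlie the calls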
Reading the numbers: Kc cell number and S2R+ cell number: higher = more cells remaining
Rule for the call: 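Counted as a hit if cell number falls by a z-score of at least 3 within its plate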

Pfas (GeneID 33847) [DRSC03480] scored Kc cell number, rep 1 = 1.34e6; Kc cell number, rep 2 = 1.34e6; S2R+ cell number, rep 1 = 7.27e5; S2R+ cell number, rep 2 = 9.25e5; inactive. Depletion of CG11699 (GeneID 32101) [DRSC19419] resulted in: Kc cell number, rep 1 = 1.59e6; Kc cell number, rep 2 = 1.53e6; S2R+ cell number, rep 1 = 1.04e6; S2R+ cell number, rep 2 = 1.12e6; inactive. Against CG11164 (GeneID 32323) [DRSC19392], the values are Kc cell number, rep 1 = 1.53e6; Kc cell number, rep 2 = 1.45e6; S2R+ cell number, rep 1 = 1.11e6; S2R+ cell number, rep 2 = 1.29e6; inactive. With knock-down of Cand1 (GeneID 34403) [DRSC01992], the screen gave Kc cell number, rep 1 = 1.22e6; Kc cell number, rep 2 = 1.25e6; S2R+ cell number, rep 1 = 1.18e6; S2R+ cell number, rep 2 = 1.25e6; inactive. With knock-down of Sox102F (GeneID 43844) [DRSC17204], the screen gave Kc cell number, rep 1 = 5.13e5; S2R+ cell number, rep 1 = 8.43e5; inactive. SamDC (GeneID 34396) [DRSC03429] scored Kc cell number, rep 1 = 1.39e6; Kc cell number, rep 2 = 1.38e6; S2R+ cell number, rep 1 = 1.19e6; S2R+ cell number, rep 2 = 1.28e6; inactive.

For CG2898 (GeneID 31966) [DRSC18238], the values are Kc cell number, rep 1 = 1.62e6; Kc cell number, rep 2 = 1.59e6; S2R+ cell number, rep 1 = 1.05e6; S2R+ cell number, rep 2 = 1.14e6; inactive. With knock-down of Klc (GeneID 39445) [DRSC11203], the screen gave Kc cell number, rep 1 = 1.45e6; Kc cell number, rep 2 = 1.48e6; S2R+ cell number, rep 1 = 1.28e6; S2R+ cell number, rep 2 = 1.27e6; inactive. COX6AL2 + Ir75d [DRSC10081] scored Kc cell number, rep 1 = 1.55e6; Kc cell number, rep 2 = 1.73e6; S2R+ cell number, rep 1 = 1.21e6; S2R+ cell number, rep 2 = 1.39e6; inactive. After knock-down of CG12986 (GeneID 32759) [DRSC19506] the results were Kc cell number, rep 1 = 1.63e6; Kc cell number, rep 2 = 1.68e6; S2R+ cell number, rep 1 = 1.09e6; S2R+ cell number, rep 2 = 1.08e6; inactive. For CG32214 (GeneID 317919) [DRSC09613] the deposit lists Kc cell number, rep 1 = 1.46e6; Kc cell number, rep 2 = 1.51e6; S2R+ cell number, rep 1 = 1.03e6; S2R+ cell number, rep 2 = 1.22e6; inactive. After knock-down of CG14840 (GeneID 41734) [DRSC14964], the record shows Kc cell number, rep 1 = 1.25e6; Kc cell number, rep 2 = 1.28e6; S2R+ cell number, rep 1 = 1.21e6; S2R+ cell number, rep 2 = 1.41e6; inactive.

Silencing of Pif2 (GeneID 170876) [DRSC12525] resulted in: Kc cell number, rep 1 = 1.50e6; Kc cell number, rep 2 = 1.60e6; S2R+ cell number, rep 1 = 1.25e6; S2R+ cell number, rep 2 = 1.32e6; inactive. For CG32755 (GeneID 318192) [DRSC18397] the deposit lists Kc cell number, rep 1 = 1.48e6; Kc cell number, rep 2 = 1.45e6; S2R+ cell number, rep 1 = 1.05e6; S2R+ cell number, rep 2 = 1.17e6; inactive.

Ordered by “S2R+ cell number, rep 1” (highest first): 2 of the entries above
SamDC (GeneID 34396) [DRSC03429]: Kc cell number, rep 1 = 1.39e6; Kc cell number, rep 2 = 1.38e6; S2R+ cell number, rep 1 = 1.19e6; S2R+ cell number, rep 2 = 1.28e6; call = inactive
CG2898 (GeneID 31966) [DRSC18238]: Kc cell number, rep 1 = 1.62e6; Kc cell number, rep 2 = 1.59e6; S2R+ cell number, rep 1 = 1.05e6; S2R+ cell number, rep 2 = 1.14e6; call = inactive
